These are yes or no findings as the source states them, for the method shown. Binding seen in cells or lysates may run through a third protein. Some results given as binding are weak or reduced against the parent protein; the word gives no strength. Where a sequence is shown, tags or fusion partners need not be part of it.
Molecular target: T1, 3xFLAG-HA tagged PATZ1 (POZ/BTB and AT-Hook-Containing Zinc Finger Protein 1) (mouse) (UniProt Q5NBY9)
T1 sequence: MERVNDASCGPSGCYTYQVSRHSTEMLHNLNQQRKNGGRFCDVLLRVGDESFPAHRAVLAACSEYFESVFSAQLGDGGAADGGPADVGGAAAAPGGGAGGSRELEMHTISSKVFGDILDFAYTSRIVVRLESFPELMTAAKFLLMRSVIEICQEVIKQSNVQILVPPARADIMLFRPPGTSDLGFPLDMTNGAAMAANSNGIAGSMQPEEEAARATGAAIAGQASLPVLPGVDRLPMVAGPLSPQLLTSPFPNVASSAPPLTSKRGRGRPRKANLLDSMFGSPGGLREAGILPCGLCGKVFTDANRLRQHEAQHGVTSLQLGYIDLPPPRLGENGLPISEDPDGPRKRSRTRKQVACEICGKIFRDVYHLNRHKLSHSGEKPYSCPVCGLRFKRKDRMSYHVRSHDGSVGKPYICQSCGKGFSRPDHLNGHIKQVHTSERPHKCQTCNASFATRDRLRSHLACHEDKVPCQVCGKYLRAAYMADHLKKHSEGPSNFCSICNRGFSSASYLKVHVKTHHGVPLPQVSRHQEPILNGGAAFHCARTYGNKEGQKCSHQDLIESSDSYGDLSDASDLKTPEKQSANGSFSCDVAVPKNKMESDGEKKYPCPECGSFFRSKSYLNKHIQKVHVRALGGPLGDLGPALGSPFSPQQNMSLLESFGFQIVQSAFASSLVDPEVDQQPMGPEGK
Experiment: co-IP; nuclear extracts of FH-PATZ1 and E14 WT mESCs; NaCl diluted to 250 mM, 0.1% NP40; anti-FLAG M2 magnetic beads; bound proteins released with SDS loading buffer; western blot for RAD21, FLAG and CTCF

B1: RAD21 (protein, UniProt Q61550 1-635)
chain: MFYAHFVLSKRGPLAKIWLAAHWDKKLTKAHVFECNLESSVESIISPKVKMALRTSGHLLLGVVRIYHRKAKYLLADCNEAFIKIKMAFRPGVVDLPEENREAAYNAITLPEEFHDFDQPLPDLDDIDVAQQFSLNQSRVEEITMREEVGNISILQENDFGDFGMDDREIMREGSAFEDDDMLVSTSASNLLLEPEQSTSNLNEKMNHLEYEDQYKDDNFGEGNDGGILDDKLISNNDGGIFDDPPALSEAGVMLPEQPAHDDMDEDDNGSLGGPDSPDSVDPVEPMPTMTDQTTLVPNEEEAFALEPIDITVKETKAKRKRKLIVDSVKELDSKTIRAQLSDYSDIVTTLDLAPPTKKLMMWKETGGVEKLFFLPAQPLWNNRLLKLFTRCLTPLVPEDLRKRRKGGEADNLDEFLKEFENPEVPREEQQPQQQQPQPQRDVIDEPIIEEPSRLQDSVMEASRTTIEESAMPPPPPQGVKRKAGQIDPEPSIPPQQVEQMEIPPVELPPEEPPNICQLIPELELLPEKEKEKEKEKEEEEEEEDEDASGGDQDQEERRWNKRTQQMLHGLQRALAKTGAESISLLELCRNTNRKQAAAKFYSFLVLKKQQAIELTQEEPYSDIIATPGPRFHII
- binding: binds
